Test results published in publication doi:10.1101/2021.05.23.445342.
No constants are given. Whether binding was seen depends on the method and setting. For some assays here: Binding seen in cells or lysates may run through a third protein. Some results given as binding are weak or reduced against the parent protein; the word gives no strength.

Sequences of proteins named here, by UniProt entry; tags and fusion partners are left off. A change or cut given only in a name is not applied to a line headed by its entry.
UniProt P13861: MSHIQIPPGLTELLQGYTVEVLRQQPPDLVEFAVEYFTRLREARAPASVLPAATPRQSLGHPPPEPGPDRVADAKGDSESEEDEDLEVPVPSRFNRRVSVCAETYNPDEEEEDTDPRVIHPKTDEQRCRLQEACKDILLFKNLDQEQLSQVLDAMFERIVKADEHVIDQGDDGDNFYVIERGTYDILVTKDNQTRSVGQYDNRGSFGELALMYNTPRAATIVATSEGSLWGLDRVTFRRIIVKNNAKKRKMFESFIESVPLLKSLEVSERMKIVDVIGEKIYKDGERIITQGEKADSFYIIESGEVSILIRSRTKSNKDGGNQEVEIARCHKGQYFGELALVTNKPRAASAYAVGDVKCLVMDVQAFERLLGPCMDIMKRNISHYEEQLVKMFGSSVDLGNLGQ

How the values were obtained:
[1] = biological target: AKAP5c (AKAP5 300-427) (human) (UniProt P24588); assay: AUC
[2] = biological target: full-length AKAP5, NanoBiT fusions (AKAP5-LgBiT and AKAP5-SmBiT) (human) (UniProt P24588); assay: split reporter

Row | Substance | binding [1] | binding [2]
1 | AKAP5c (AKAP5 300-427) (from UniProt P24588 300-427) (domain or fragment) | no binding (tested: 70 µM) | 
2 | regulatory PKA subunit (R2A), NanoBiT fusion (from UniProt P13861 1-404) |  | binds
